The results in this text go back to article PMC11176080.

Sequences of proteins named here, by UniProt entry; tags and fusion partners are left off.
UniProt Q91ZW3: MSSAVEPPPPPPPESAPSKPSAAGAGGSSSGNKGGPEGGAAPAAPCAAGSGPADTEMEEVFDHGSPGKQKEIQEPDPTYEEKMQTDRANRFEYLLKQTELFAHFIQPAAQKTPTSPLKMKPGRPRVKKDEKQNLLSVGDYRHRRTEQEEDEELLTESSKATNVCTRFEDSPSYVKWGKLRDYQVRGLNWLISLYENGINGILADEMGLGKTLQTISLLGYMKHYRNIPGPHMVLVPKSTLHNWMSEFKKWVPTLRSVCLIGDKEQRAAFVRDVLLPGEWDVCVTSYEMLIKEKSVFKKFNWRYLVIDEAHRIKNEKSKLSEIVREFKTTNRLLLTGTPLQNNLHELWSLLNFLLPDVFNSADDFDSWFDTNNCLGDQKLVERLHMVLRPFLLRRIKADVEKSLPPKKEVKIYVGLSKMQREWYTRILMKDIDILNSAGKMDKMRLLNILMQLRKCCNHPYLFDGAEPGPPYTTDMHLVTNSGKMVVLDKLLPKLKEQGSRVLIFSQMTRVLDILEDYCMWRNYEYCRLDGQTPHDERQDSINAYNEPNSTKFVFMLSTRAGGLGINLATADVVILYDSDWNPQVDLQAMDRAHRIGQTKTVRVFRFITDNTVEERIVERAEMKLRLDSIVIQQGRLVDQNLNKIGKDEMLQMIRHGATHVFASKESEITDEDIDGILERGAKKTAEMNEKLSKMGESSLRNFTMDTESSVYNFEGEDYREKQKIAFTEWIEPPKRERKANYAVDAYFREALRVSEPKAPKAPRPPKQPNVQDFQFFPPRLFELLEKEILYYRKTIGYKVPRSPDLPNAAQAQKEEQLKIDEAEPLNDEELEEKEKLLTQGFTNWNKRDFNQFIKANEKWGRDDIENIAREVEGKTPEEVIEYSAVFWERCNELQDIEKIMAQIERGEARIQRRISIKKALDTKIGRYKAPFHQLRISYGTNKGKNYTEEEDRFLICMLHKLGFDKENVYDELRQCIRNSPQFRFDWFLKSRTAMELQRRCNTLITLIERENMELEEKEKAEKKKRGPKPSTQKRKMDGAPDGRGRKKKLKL
UniProt Q91YE5: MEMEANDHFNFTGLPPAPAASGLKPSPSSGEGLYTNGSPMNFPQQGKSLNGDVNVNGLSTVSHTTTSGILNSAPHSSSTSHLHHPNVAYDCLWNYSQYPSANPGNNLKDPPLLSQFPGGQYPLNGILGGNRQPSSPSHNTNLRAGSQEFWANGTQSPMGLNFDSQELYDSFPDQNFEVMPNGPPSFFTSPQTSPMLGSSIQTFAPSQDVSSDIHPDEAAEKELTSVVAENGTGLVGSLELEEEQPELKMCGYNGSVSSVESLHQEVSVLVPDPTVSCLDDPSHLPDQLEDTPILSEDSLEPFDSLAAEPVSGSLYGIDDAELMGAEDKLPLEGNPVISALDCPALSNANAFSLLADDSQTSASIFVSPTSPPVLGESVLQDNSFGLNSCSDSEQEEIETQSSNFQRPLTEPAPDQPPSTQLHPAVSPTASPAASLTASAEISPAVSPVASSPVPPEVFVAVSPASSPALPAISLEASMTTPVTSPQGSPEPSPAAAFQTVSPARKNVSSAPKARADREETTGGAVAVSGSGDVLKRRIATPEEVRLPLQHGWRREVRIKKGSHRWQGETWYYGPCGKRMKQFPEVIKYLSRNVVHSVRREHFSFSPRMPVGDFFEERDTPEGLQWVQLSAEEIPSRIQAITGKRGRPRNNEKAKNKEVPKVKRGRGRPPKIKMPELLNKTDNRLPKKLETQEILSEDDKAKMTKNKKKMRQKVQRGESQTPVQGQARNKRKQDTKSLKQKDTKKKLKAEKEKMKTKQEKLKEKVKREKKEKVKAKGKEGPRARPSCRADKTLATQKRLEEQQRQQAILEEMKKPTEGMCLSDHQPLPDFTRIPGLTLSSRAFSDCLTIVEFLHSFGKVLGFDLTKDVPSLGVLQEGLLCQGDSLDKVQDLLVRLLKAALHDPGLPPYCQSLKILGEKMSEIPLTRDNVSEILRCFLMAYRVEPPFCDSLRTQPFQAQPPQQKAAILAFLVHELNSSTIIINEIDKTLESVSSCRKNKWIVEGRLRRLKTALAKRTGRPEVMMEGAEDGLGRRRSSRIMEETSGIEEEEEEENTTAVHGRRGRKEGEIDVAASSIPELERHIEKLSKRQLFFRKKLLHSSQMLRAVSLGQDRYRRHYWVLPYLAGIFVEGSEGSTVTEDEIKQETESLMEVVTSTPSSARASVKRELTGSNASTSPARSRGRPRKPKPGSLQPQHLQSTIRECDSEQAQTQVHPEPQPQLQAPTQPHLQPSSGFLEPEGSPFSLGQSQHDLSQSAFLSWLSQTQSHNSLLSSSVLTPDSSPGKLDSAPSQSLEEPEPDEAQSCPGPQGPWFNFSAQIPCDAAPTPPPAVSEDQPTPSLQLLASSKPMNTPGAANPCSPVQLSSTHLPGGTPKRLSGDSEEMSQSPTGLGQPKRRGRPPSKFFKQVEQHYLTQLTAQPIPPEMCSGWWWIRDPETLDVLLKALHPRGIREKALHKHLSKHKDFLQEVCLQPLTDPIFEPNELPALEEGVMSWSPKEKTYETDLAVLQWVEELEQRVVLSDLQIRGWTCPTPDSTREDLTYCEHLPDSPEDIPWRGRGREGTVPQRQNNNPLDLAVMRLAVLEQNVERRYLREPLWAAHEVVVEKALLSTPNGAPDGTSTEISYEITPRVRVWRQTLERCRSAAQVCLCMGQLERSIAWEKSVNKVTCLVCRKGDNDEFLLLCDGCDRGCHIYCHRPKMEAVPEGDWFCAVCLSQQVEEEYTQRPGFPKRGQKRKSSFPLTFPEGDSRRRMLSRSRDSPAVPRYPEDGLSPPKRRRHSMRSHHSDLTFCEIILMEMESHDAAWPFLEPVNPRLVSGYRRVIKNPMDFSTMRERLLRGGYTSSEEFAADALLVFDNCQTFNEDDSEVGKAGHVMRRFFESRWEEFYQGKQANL
UniProt O88379: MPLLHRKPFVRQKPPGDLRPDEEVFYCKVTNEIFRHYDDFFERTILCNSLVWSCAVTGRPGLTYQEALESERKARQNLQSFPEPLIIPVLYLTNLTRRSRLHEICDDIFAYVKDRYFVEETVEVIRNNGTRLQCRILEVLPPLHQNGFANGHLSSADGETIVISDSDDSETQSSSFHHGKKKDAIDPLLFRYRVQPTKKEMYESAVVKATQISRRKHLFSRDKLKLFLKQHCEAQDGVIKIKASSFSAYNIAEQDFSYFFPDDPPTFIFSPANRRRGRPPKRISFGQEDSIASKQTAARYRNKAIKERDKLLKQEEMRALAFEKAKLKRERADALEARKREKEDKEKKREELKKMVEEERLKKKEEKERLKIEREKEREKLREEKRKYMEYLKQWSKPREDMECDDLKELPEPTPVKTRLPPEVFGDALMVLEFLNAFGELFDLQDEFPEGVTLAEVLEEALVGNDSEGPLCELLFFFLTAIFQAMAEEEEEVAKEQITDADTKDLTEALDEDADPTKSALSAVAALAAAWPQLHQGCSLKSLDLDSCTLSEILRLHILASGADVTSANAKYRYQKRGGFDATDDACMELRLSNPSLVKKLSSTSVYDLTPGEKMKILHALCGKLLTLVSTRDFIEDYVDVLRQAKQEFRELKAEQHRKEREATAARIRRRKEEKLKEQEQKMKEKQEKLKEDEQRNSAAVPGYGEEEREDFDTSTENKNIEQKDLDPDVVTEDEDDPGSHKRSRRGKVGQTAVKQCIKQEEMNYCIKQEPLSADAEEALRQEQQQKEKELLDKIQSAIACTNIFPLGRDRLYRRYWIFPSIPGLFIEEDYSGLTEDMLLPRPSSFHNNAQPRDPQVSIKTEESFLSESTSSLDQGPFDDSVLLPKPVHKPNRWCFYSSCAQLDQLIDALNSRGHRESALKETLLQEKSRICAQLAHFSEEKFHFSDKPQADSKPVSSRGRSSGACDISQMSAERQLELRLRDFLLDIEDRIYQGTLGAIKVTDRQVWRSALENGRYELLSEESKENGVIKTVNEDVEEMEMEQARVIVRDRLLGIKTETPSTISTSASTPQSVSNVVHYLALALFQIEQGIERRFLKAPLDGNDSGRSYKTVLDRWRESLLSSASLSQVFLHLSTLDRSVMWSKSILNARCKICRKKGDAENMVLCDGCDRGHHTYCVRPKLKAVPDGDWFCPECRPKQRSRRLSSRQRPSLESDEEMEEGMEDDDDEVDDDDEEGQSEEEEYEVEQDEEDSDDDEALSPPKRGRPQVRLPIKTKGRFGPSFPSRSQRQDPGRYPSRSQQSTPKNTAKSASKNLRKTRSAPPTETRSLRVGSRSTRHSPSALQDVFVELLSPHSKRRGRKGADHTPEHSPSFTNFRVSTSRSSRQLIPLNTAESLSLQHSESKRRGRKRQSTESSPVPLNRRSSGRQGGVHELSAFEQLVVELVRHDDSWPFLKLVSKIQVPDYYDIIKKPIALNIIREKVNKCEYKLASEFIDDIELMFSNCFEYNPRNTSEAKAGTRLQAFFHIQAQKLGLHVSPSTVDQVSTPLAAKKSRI
UniProt E9Q2Z1: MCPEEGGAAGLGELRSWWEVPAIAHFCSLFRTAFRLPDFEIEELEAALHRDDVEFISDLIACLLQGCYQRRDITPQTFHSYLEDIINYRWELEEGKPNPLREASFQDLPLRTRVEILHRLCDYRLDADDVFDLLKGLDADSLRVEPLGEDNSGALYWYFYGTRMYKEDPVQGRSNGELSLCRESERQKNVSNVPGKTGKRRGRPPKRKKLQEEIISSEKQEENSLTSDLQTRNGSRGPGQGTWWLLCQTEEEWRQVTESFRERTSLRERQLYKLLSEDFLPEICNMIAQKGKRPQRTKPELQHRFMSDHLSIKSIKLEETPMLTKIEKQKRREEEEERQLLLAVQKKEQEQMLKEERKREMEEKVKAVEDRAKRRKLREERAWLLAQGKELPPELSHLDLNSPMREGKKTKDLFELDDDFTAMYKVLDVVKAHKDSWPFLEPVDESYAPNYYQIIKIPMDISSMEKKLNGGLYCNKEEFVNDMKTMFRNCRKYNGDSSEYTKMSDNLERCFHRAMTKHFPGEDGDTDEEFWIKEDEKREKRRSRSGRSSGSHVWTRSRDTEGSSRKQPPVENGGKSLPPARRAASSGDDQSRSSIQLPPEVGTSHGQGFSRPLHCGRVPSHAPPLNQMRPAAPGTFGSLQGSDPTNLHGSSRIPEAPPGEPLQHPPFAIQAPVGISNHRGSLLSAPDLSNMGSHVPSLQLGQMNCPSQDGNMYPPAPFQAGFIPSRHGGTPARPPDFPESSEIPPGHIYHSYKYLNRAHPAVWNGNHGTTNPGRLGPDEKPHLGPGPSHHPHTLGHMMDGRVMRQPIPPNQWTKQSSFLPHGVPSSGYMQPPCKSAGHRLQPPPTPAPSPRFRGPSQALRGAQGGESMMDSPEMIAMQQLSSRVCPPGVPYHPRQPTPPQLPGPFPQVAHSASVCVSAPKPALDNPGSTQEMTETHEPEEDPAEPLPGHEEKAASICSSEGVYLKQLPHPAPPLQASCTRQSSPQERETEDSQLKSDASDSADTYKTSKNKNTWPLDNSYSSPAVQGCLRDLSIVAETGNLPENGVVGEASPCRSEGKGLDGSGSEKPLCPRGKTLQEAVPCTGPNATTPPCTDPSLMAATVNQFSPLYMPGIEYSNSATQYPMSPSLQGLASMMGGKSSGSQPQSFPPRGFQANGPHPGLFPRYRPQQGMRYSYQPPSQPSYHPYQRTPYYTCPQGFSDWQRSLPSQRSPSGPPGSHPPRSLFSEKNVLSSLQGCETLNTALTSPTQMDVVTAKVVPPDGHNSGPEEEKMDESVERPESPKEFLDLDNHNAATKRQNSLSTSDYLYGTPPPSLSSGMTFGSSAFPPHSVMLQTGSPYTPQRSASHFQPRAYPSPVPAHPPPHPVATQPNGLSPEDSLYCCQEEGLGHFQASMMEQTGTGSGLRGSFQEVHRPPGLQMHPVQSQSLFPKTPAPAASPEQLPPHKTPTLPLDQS

Read-outs that look alike come from different tables or passages of the source. No constants are given. Whether binding was seen depends on the method and setting. Binding seen in cells or lysates may run through a third protein. Some results given as binding are weak or reduced against the parent protein; the word gives no strength.

For experiment [1], the target named is SNF2H (SMARCA5) (mouse (endogenous in mESCs)) (UniProt Q91ZW3). Put plainly: co-IP; anti-SNF2H antibody on protein G Dynabeads from mESC nuclear extracts (RIPA buffer, sonicated, Benzonase), 4 °C overnight; western blot against ISWI subunits; WT and ISWI subunit deletion lines.
The target is the same in experiment [2]. Described as above. The source holds these as a separate data set.

As to “TIP5 (BAZ2A) (from UniProt Q91YE5 1-1889)”, the binding result in experiment [1] is listed as “binds”. For the molecule “ACF1 (BAZ1A) (from UniProt O88379 1-1555)”, the binding result in experiment [1] is recorded as “binds”. As for CECR2 (from UniProt E9Q2Z1 1-1453), the binding entry in experiment [1] is given as “binds”.

B1: RSF1 (protein, UniProt E9PWW9 1-1441)
chain: MAAAAAAAAAAAAAAMAPPGCPGSCPNFAVVCSFLERYGPLLDLPELPFPELERVLQAPPPDIGNGEVPKELVELHLKLMRKIGKSVTADRWEKYLIKICQEFNSTWAWEMEKKGYLEMSVECKLALLKYLCECQFDDNLKFKNIINEEDADTMRLQPIGRDKDGLMYWYQLDQDHNVRMYIEEQDDQDGSSWKCIVRNRNELAETLALLKAQIDPVLLKNSSQQEDSSRESPTLEDEETKKDEETPKQEASKENEKTGADERSVDSGKCSAASALEEPAVKTEKADEKELAKLPVIVKLEKPLPETEEKKIIREESDSFKENVKPIKVEAKECRADPKDLKGSLERLGSQEPERADFGSNIKSQDIIEKSTEETEKLKNDQQAKIPLKKREIKLSDDFDSPVKGPLCKSATPTKEVLKDDIKQEEETCKRVSTISALSHEGKQLVNGEINDDKVIPNFKTEQMEIQLCDTKEDSASIPAKDGNACMEGNGTECLNSVITSTKTSELEKEAPLGKGIDSSVPDIESLSQKARLEEPGLLNMDMPLEPSEKATDLSLKPTLSATEPCSTKVEEKAPRSKSENHTPGIECLERVEKAKKTSIDKDIQKLSPIPEEVVRGALESEKSGPCEVAETPLPLSMAGAKEKQTSEKKDVDCSRGSSESQSLENASPEILKEDSESSREEVAKLDNAQTSGMEDTSETKGSVQKNKFKYKLVSERNSTASENTEITSERKKEGIKLTIRISSRKKKPDCPPQTVDSESKEEKAGKEEEKASVGRTLRRSPRISRPTAKVAEIRVQKADKRRADGEDGVEGEPASLQTADKKDHLKKAEKDTNSKASKVKPKGKVRWTGSRTRGRWKYSSNDESEGSESDKSSAALEEEEGKEGEEAVLPDDDEPCKKCGLPNHPELILLCDSCDSGYHTACLRPPLMIIPDGEWFCPPCQHKLLCEKLEEQLQDLDVALKKKERAERRKERLVYVGISIENIIPPQEPEFSEEQEEKKKDAKKSKANALERRSTRTRKCISYRFDEFDEAIDEAIEDDIKEADGGGVGRGKDISTITGHRGKDISTILDEERKENKRPQRAAAARRKKRRRLNDLDSDSNLDEEESEDEFKISDGSQDEFVVSDENPDESEEEPPSNEDSDTDFCSRRLRRHPSRPMRQSRRLRRKTPKKKYSDDDEEEEESEENSRDSESDFSDDFSDDFVETRRRRSRRNQKRQINYKEDSESDGSQKSLRRGKEIRRVHKRRLSSSESEESFMSKNSEDDELTKESKRSVRKRGRSTDDYSEADEDDEEEGKPSRKRLHRIETDEESCDNAHGDADQPARDSQPSALPSEQESSKKPYRIESDEEEDFENKVGSPLDYSLVDLPSTNGQSPGKAIENLMGKATEKSQTPKDNGTASASLAPNGTSGGQEVGAPEEDEDELLRVTDLVDYVCNSEQL
Turning to B1, the binding entry in experiment [2] is recorded as “binds”.

B2: WSTF (BAZ1B) (protein, UniProt Q9Z277 1-1479)
chain: MAPLLGRKPFPLVKPLPGEEPLFTIPHTQEAFRTREEYEARLERYSERIWTCKSTGSSQLTHKEAWEEEQEVAELLKEEFPNWYEKLVLEMVHHNTASLEKLVDSAWLEIMTKYAVGEECDFEVGKEKMLKVKIVKIHPLEKVDEEAVEKKSDGACDSPSSDKENSSQMAQDLQKKETVVKEDEGRRESINDRARRSPRKLPTSLKKGERKWAPPKFLPHKYDVKLQNEDKIISNVPADSLIRTERPPNKEILRYFIRHNALRAGTGENAPWVVEDELVKKYSLPSKFSDFLLDPYKYMTLNPSTKRRNTGSPDRKPSKKPKRDSSSLSSPLNPKLWCHVHLEKSLNGPPLKVKNSKNSKSPEEHLEGVMKIMSPNNNKLHSFHIPKKGPAAKKPGKHSDKPLKAKGRGKGILNGQKSTGNSKSPSKCVKTPKTKMKQMTLLDMAKGTQKMTRTPRSSGGVPRSSGKPHKHLPPAALHLIAYYKENKDKEDKKSALSCVISKTARLLSNEDRARLPEELRALVQKRYELLEHKKRWASMSEEQRKEYLKKKRQELKERLREKAKERREREMLERLEKQKRFEDQELGGRNLPAFRLVDTPEGLPNTLFGDVALVVEFLSCYSGLLLPDAQYPITAVSLMEALSADKGGFLYLNRVLVILLQTLLQDEIAEDYGELGMKLSEIPLTLHSVSELVRLCLRRCDVQEDSEGSETDDNKDSTPFEDNEVQDEFLEKLETSEFFELTSEEKLRILTALCHRILMTYSVQDHMETRQQVSAELWKERLAVLKEENDKKRAEKQKRKEMEARNKENGKEENVLGKVDRKKEIVKIEQQVEVEADDMISAVKSRRLLSMQAKRKREIQERETKVRLEREAEEERMRKHKAAAEKAFQEGIAKAKLVLRRTPIGTDRNHNRYWLFSNEVPGLFIEKGWVHNSIDYRFKHHRKDHSNLPDDDYCPRSKKANLGKNASVNAHHGPALEAVETTVPKQGQNLWFLCDSQKELDELLSCLHPQGIRESQLKERLEKRYQEITHSIYLARKPNLGLKSCDGNQELLNFLRSDLIEVATRLQKGGLGYMEGTSEFEARVISLEKLKDFGECVIALQASVIKKFLQGFMAPKQKKRKLQSEDSTKSEEVDEEKKMVEEAKVASALEKWKTAIREAQTFSRMHVLLGMLDACIKWDMSAENARCKVCRKKGEDDKLILCDECNKAFHLFCLRPALYEVPDGEWQCPACQPPTARRNSRGRNYTEESTSEGSEGDESGEEEEEEEEEEEEEEDYEVAGLRLRPRKTIRGKQSVIPAARPGRPPGKKSHPARRSRPKDDPEVDDLVLQTKRISRRQSLELQKCEDILHKLVKYRFSWPFREPVTRDEAEDYYDVIEHPMDFQTIQNKCSCGNYRSVQEFLTDMKQVFANAELYNCRGSHVLSCMEKTEQCLLALLQKHLPGHPYVRRKRRKFPDRLADDEGDSDSESVGQSRGRRQKK
With B2, the binding entry in experiment [2] is on record as “binds”.
